Laboratory results: PubChem BioAssay AID652243 (Drosophila RNAi Screening Center, 2013)

Test: 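Fly regulators of androgen-dependent reporter output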 (primary screen)
Cell system: Drosophila S2R+ cells
Reagent: long dsRNA against Drosophila genes
Time to read-out: 72 h (48 h, then 24 h hormone)
Challenge: synthetic androgen R1881 at 10 nM for 24 h
Measurement: 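Firefly light from an androgen-responsive reporter and Renilla control light per well, raw and unnormalised, for each of two replicates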
Direction: firefly reporter light: higher = more light from androgen-responsive reporter; Renilla control light: higher = more constitutive control signal (cell number, transfection)
Call rule: 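Hit when the log firefly-to-Renilla ratio dropped or increased by a fixed fold versus the mean of GFP or LacZ controls across duplicate plates; lowering cut given as 1.5 and as 3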
Meaning of the calls: active = hit: reporter lowered or raised; inactive = no hit
The deposit covers about 24,000 reagents; shown is a random part of those with a known target gene and a result. In the full data, 246 (1%) were called active. 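Plates not normalised; calls are printed but the firefly/Renilla ratio behind them is not deposited; fold cut for lowering reported inconsistently.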 The raw values are shown without normalisation. Entries without a mark were called inactive. Names joined by + are all predicted targets of the reagent. No sequences are given here. Not given: the amount of reagent.

no.	gene	dsRNA	firefly reporter light, replicate 1	firefly reporter light, replicate 2	Renilla control light, replicate 1	Renilla control light, replicate 2
1	htl (GeneID 42160)	DRSC16968	65658	48573	3.18e5	4.88e5
2	htl (GeneID 42160)	DRSC36668	5.27e5	6.50e5	1.19e6	1.26e6
3	Su(var)3-3 (GeneID 40217)	DRSC10250	35324	34722	3.64e5	2.86e5
4	Su(var)3-3 (GeneID 40217)	DRSC24846	5.38e5	7.20e5	4.88e5	5.41e5
5	CAH6 (GeneID 43701)	DRSC15505	2.18e5	2.04e5	2.58e6	2.78e6
6	Tao (GeneID 32948)	DRSC19573	4.19e5	3.62e5	3.81e6	2.31e6
7	Tao (GeneID 32948)	DRSC19574	4.30e5	2.40e5	2.74e6	2.01e6
8	Tao (GeneID 32948)	DRSC22639	4.79e5	5.74e5	1.89e6	1.68e6
9	Tao (GeneID 32948)	DRSC28431	2.34e5	4.43e5	5.32e5	7.55e5
10	CG17380 (GeneID 42766)	DRSC15230	2.55e5	2.53e5	2.77e6	3.08e6
11	Tsen2 (GeneID 318956)	DRSC01557	1.32e5	1.29e5	2.94e5	2.82e5
12	Tsen2 (GeneID 318956)	DRSC27827	4.25e5	3.52e5	5.68e5	6.07e5
13	CG33688 (GeneID 3772065)	DRSC37819	7.71e5	5.06e5	2.09e6	1.60e6
14	lectin-28C (GeneID 53542)	DRSC03010	1.71e5	2.02e5	1.85e6	1.95e6
15	lectin-28C (GeneID 53542)	DRSC26982	5.77e5	5.55e5	6.79e5	6.24e5
16	Ir67b (GeneID 39194)	DRSC09876	1.54e5	1.75e5	1.70e6	1.44e6
17	CG15042 (GeneID 32844)	DRSC19618	3.59e5	3.80e5	3.17e6	2.53e6
18	grass (GeneID 43273)	DRSC15911	1.78e5	2.10e5	2.99e6	3.27e6
19	PQBP1 (GeneID 43004)	DRSC14393	44782	66682	3.93e5	4.90e5
20	Xpd (GeneID 37414)	DRSC04666	8.43e5	9.03e5	2.09e6	2.68e6
21	Xpd (GeneID 37414)	DRSC27757	1.63e5	2.09e5	3.09e5	4.68e5
22	Obp59a (GeneID 37605)	DRSC04160	2.78e5	2.68e5	1.85e6	1.54e6
23	His-Psi:CR31754 (GeneID 3772639)	DRSC22051	8.12e5	7.70e5	40264	20811
24	CG16985 (GeneID 38323)	DRSC08501	1.04e5	1.19e5	1.31e6	1.19e6
25	alt (GeneID 42127)	DRSC15315	33067	94757	3.79e5	4.93e5
26	alt (GeneID 42127)	DRSC28347	5.02e5	5.61e5	6.47e5	1.04e6
27	Sol1 (GeneID 41513)	DRSC15263	3.13e5	2.23e5	2.78e6	2.50e6
28	Sol1 (GeneID 41513)	DRSC15271	95464	93144	1.36e6	1.59e6
29	Sol1 (GeneID 41513)	DRSC15681	1.61e5	2.11e5	3.17e6	3.39e6
30	spg (GeneID 43404)	DRSC14373	2.35e5	2.41e5	2.38e6	3.06e6
31	spg (GeneID 43404)	DRSC14881	2.15e5	2.64e5	2.95e6	3.07e6
32	rno (GeneID 38027)	DRSC08584	1.31e5	1.97e5	1.85e6	1.79e6
33	Ir100a (GeneID 43753)	DRSC14329	1.33e5	2.58e5	9.72e5	1.64e6
34	Ir100a (GeneID 43753)	DRSC25881	3.25e5	4.09e5	1.10e6	9.93e5
35	kni (GeneID 40287)	DRSC23093	4.62e5	6.04e5	1.20e6	1.41e6
36	kni (GeneID 40287)	DRSC29974	8.43e5	7.86e5	1.43e6	1.51e6
37	Cpr67Fa1 + Cpr67Fa2	DRSC28050	5.86e5	9.48e5	1.52e6	1.68e6
38	CG12096 (GeneID 32269)	DRSC21692	7.61e5	5.96e5	2.26e6	2.01e6
39	CG12096 (GeneID 32269)	DRSC27886	5.77e5	3.81e5	1.36e6	1.11e6
40	GrlHz (GeneID 37648)	DRSC04424	7.45e5	4.46e5	2.01e6	1.15e6
41	CG15695 (GeneID 42468)	DRSC15117	2.94e5	3.44e5	3.37e6	3.24e6
42	CG15695 (GeneID 42468)	DRSC29582	7.64e5	6.26e5	9.87e5	9.87e5
43	wry (GeneID 33361)	DRSC00352	56497	64766	3.82e5	5.25e5
44	wry (GeneID 33361)	DRSC00456	69360	2.25e5	7.95e5	1.29e6
45	wry (GeneID 33361)	DRSC22414	4.99e5	1.05e6	8.55e5	1.73e6
46	CG14915 (GeneID 34536)	DRSC02399	2.26e5	2.66e5	1.52e6	1.71e6
47	CG14915 (GeneID 34536)	DRSC26295	3.35e5	2.96e5	6.77e5	7.07e5
48	Lpt (GeneID 37795)	DRSC04291	2.53e5	2.97e5	2.16e6	2.29e6
49	Lpt (GeneID 37795)	DRSC04515	9.14e5	2.89e5	1.76e6	7.36e5
50	CG31288 (GeneID 318664)	DRSC14667	2.13e5	2.83e5	2.43e6	2.22e6
51	CG31288 (GeneID 318664)	DRSC27373	2.24e5	2.78e5	6.70e5	5.11e5
52	CG11560 (GeneID 39376)	DRSC09843	1.15e6	9.60e5	2.36e6	2.17e6
53	CG11560 (GeneID 39376)	DRSC27017	4.36e5	3.10e5	9.72e5	4.17e5
54	CG43439 + CG32388	DRSC08861	2.46e5	1.94e5	8.05e5	6.30e5
55	CG14232 (GeneID 32983)	DRSC19588	1.43e5	1.77e5	1.26e6	8.76e5
56	CG14232 (GeneID 32983)	DRSC27714	1.87e5	2.26e5	6.08e5	8.44e5
57	CG6738 (GeneID 42732)	DRSC16104	1.30e5	1.54e5	1.81e6	1.53e6
58	CG6738 (GeneID 42732)	DRSC27802	2.15e5	2.37e5	3.08e5	7.62e5
